Laboratory results from patent US7736848B2, “Cellular targets for treatment of retroviral infection” (Fox Chase Cancer Center, priority 2002, dated 2010).
Some entries share one result that the patent states for a list of compounds.

System: HIV-1 NL4-3 (X4) strain
Test: HIV-1 NL4-3 replication in PBMCs (p24 antigen ELISA)
Type: cell-based
Conditions: 4 mM, day 3 post-infection

Cn1c(=O)[nH]c2ncn(C)c2c1=O [paraxanthine, 1,7-dimethylxanthine]
decrease in HIV-1 p24 antigen vs NL4-3 infected control: 2 to 3 fold

Cn1cnc2c1c(=O)[nH]c(=O)n2C [theobromine, 3,7-dimethylxanthine]
decrease in HIV-1 p24 antigen vs NL4-3 infected control: 2 to 3 fold
